One molecule from paper PMC7160950, “Identification and analysis of KLF13 variants in patients with congenital heart disease” (BMC Medical Genetics, 2020) can be followed below.

Protein sequences, listed by entry. Tags and fused reporters are not part of them. Lines headed by an entry give the natural chain unless they say otherwise; changes in a name come on top.
UniProt Q9Y2Y9: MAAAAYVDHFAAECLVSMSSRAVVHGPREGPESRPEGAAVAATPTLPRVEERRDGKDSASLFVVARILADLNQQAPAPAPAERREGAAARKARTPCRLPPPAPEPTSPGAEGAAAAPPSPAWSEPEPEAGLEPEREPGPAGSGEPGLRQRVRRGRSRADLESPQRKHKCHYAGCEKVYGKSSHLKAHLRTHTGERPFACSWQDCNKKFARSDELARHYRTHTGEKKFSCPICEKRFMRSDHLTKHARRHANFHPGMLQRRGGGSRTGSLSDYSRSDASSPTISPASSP

Assay [1] deals with KLF13 variant c.467G > A (S156N), myc-tagged (human) (UniProt Q9Y2Y9). The assay is described as follows: co-IP; 293 T cells co-transfected with wild-type or variant myc-KLF13 and TBX5; protein extracts incubated overnight with anti-myc antibody coupled to magnetic beads; bound proteins revealed with anti-TBX5 by Western blotting.
For assay [2], the target named is KLF13 variant c.487C > T (P163S), myc-tagged (human) (UniProt Q9Y2Y9). Described as above.

No constants are given. Whether binding was seen depends on the method and setting. Binding seen in cells or lysates may run through a third protein. Some binding calls cover weakened binding; strength is not graded here.

B1: TBX5 (natural protein, UniProt Q99593 1-518, looked up)
chain: MADADEGFGLAHTPLEPDAKDLPCDSKPESALGAPSKSPSSPQAAFTQQGMEGIKVFLHERELWLKFHEVGTEMIITKAGRRMFPSYKVKVTGLNPKTKYILLMDIVPADDHRYKFADNKWSVTGKAEPAMPGRLYVHPDSPATGAHWMRQLVSFQKLKLTNNHLDPFGHIILNSMHKYQPRLHIVKADENNGFGSKNTAFCTHVFPETAFIAVTSYQNHKITQLKIENNPFAKGFRGSDDMELHRMSRMQSKEYPVVPRSTVRQKVASNHSPFSSESRALSTSSNLGSQYQCENGVSGPSQDLLPPPNPYPLPQEHSQIYHCTKRKEEECSTTDHPYKKPYMETSPSEEDSFYRSSYPQQQGLGASYRTESAQRQACMYASSAPPSEPVPSLEDISCNTWPSMPSYSSCTVTTVQPMDRLPYQHFSAHFTSGPLVPRLAGMANHGSPQLGEGMFQHQTSVAHQPVVRQCGPQTGLQSPGTLQPPEFLYSHGVPRTLSPHQYHSVHGVGMVPEWSDNS
As for B1, the binding result in assay [1] and in assay [2] was “binds” throughout.
